# Experimental data: PubChem BioAssay AID1259254 (NCATS, 2017)
# Purpose: 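Gene knock-downs that lead to re-replication, shown by excess G2 DNA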 (primary screen)
# System: human HCT116 colorectal cancer cells
# Reagent: single siRNA against human genes
# Timing: 3 days
# Detection: 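Imaged Hoechst DNA stain sorts each cell into a cycle phase by DNA amount; per plate, G2 fraction set to 0% for non-targeting and 100% for GMNN siRNA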
# Scale: G2 robust z-score and G2 cells, % of GMNN control: higher = more G2 cells, more excess DNA replication
# Rule for the call: 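Active siRNAs have a G2 robust z of 5 or more median absolute deviations over the median, which in these data means about 38% or higher of GMNN control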
# The deposit covers about 59,000 reagents; shown is a part drawn at random. In the full data, about 1,550 (2.6%) got an active call. 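G2 share is only a proxy for re-replication; each gene was hit by three separate siRNAs, and active genes were retested.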 Not all columns of the deposit are shown. Not stated in the record: the amount of reagent.
gene symbol,PubChem SID,G2 robust z-score,"G2 cells, % of GMNN control",outcome
LRRC1 (leucine rich repeat containing 1),SID160743284,0.175,4.2,inactive
LRRC1 (leucine rich repeat containing 1),SID160743285,0.0796,3.53,inactive
LRRC1 (leucine rich repeat containing 1),SID160743286,1.26,11.8,inactive
NFIA-AS1 (NFIA antisense RNA 1),SID160733911,0.0169,3.09,inactive
NFIA-AS1 (NFIA antisense RNA 1),SID160769423,2.07,17.6,inactive
NFIA-AS1 (NFIA antisense RNA 1),SID160769426,0.51,6.55,inactive
ADAT1 (adenosine deaminase tRNA specific 1),SID160730860,2.12,17.9,inactive
ADAT1 (adenosine deaminase tRNA specific 1),SID160736502,0.00272,2.99,inactive
ADAT1 (adenosine deaminase tRNA specific 1),SID160736503,-1.16,-5.22,inactive
ATAD3B (ATPase family AAA domain containing 3B),SID160724599,2.89,23.3,inactive
ATAD3B (ATPase family AAA domain containing 3B),SID160731998,-0.89,-3.29,inactive
ATAD3B (ATPase family AAA domain containing 3B),SID160751445,-0.569,-1.04,inactive
KLK11 (kallikrein related peptidase 11),SID160729736,-0.182,1.69,inactive
KLK11 (kallikrein related peptidase 11),SID160729737,0.879,9.15,inactive
KLK11 (kallikrein related peptidase 11),SID160729738,-0.0142,2.87,inactive
MRPL32 (mitochondrial ribosomal protein L32),SID160748195,-0.587,-1.16,inactive
MRPL32 (mitochondrial ribosomal protein L32),SID160748196,-0.13,2.05,inactive
MRPL32 (mitochondrial ribosomal protein L32),SID160748197,-1.26,-5.88,inactive
AMOTL1 (angiomotin like 1),SID160759452,-0.473,-0.364,inactive
AMOTL1 (angiomotin like 1),SID160759453,-0.0628,2.53,inactive
AMOTL1 (angiomotin like 1),SID160759454,-0.487,-0.462,inactive
UNC93A (unc-93 homolog A),SID160733537,2.05,17.4,inactive
UNC93A (unc-93 homolog A),SID160741636,0.417,5.9,inactive
UNC93A (unc-93 homolog A),SID160741637,2.37,19.6,inactive
LINC02897 (long independently transcribed non-coding RNA 2897),SID160733213,-0.455,-0.237,inactive
LINC02897 (long independently transcribed non-coding RNA 2897),SID160765985,-1.06,-4.5,inactive
LINC02897 (long independently transcribed non-coding RNA 2897),SID160765986,-0.346,0.533,inactive
TMEM106C (transmembrane protein 106C),SID160734921,0.355,5.47,inactive
TMEM106C (transmembrane protein 106C),SID160748494,1.27,11.9,inactive
TMEM106C (transmembrane protein 106C),SID160748495,2.44,20.1,inactive
MAFA (MAF bZIP transcription factor A),SID160725232,-0.26,1.14,inactive
MAFA (MAF bZIP transcription factor A),SID160725233,1.44,13.1,inactive
MAFA (MAF bZIP transcription factor A),SID160725234,-0.21,1.49,inactive
ZNF236 (zinc finger protein 236),SID160719325,-0.234,1.32,inactive
ZNF236 (zinc finger protein 236),SID160719326,-0.528,-0.749,inactive
ZNF236 (zinc finger protein 236),SID160719327,0.127,3.86,inactive
SLC25A34,SID160763424,2.16,18.1,inactive
SLC25A34,SID160763425,2.15,18.1,inactive
SLC25A34,SID160763426,3.03,24.3,inactive
TMEM234 (transmembrane protein 234),SID160733637,-1.13,-5.01,inactive
TMEM234 (transmembrane protein 234),SID160744746,0.303,5.1,inactive
TMEM234 (transmembrane protein 234),SID160744747,1.64,14.5,inactive
AQR (aquarius intron-binding spliceosomal factor),SID160722888,0.499,6.48,inactive
AQR (aquarius intron-binding spliceosomal factor),SID160722889,0.898,9.28,inactive
AQR (aquarius intron-binding spliceosomal factor),SID160722890,-0.784,-2.55,inactive
UBE2HP1 (ubiquitin conjugating enzyme E2 H pseudogene 1),SID160733986,-0.228,1.37,inactive
UBE2HP1 (ubiquitin conjugating enzyme E2 H pseudogene 1),SID160769891,0.901,9.31,inactive
UBE2HP1 (ubiquitin conjugating enzyme E2 H pseudogene 1),SID160769892,1.02,10.2,inactive
EMB (embigin),SID160757244,-0.852,-3.03,inactive
EMB (embigin),SID160757245,-0.745,-2.27,inactive
EMB (embigin),SID160757246,-0.326,0.673,inactive
"ETS2 (ETS proto-oncogene 2, transcription factor)",SID160762157,-0.28,0.996,inactive
"ETS2 (ETS proto-oncogene 2, transcription factor)",SID160762167,-0.572,-1.06,inactive
"ETS2 (ETS proto-oncogene 2, transcription factor)",SID160762178,-0.415,0.0488,inactive
MC4R (melanocortin 4 receptor),SID160777025,-0.0974,2.28,inactive
MC4R (melanocortin 4 receptor),SID160777026,0.34,5.36,inactive
MC4R (melanocortin 4 receptor),SID160777027,7.18,53.5,active
CSK (C-terminal Src kinase),SID160730641,-1.05,-4.43,inactive
CSK (C-terminal Src kinase),SID160749216,-0.471,-0.345,inactive
CSK (C-terminal Src kinase),SID160749237,-0.171,1.76,inactive
SPRY1 (sprouty RTK signaling antagonist 1),SID160727711,-0.382,0.28,inactive
SPRY1 (sprouty RTK signaling antagonist 1),SID160727719,-1.22,-5.64,inactive
SPRY1 (sprouty RTK signaling antagonist 1),SID160727722,1.35,12.4,inactive
MEGF8 (multiple EGF like domains 8),SID160758838,0.314,5.17,inactive
MEGF8 (multiple EGF like domains 8),SID160758849,-1.62,-8.42,inactive
MEGF8 (multiple EGF like domains 8),SID160758859,-0.384,0.266,inactive
"B4GALT2 (beta-1,4-galactosyltransferase 2)",SID160732089,0.265,4.83,inactive
"B4GALT2 (beta-1,4-galactosyltransferase 2)",SID160776958,-0.1,2.26,inactive
"B4GALT2 (beta-1,4-galactosyltransferase 2)",SID160777169,-0.664,-1.71,inactive
CTNND2 (catenin delta 2),SID160750450,-0.321,0.712,inactive
CTNND2 (catenin delta 2),SID160750461,1.15,11.1,inactive
CTNND2 (catenin delta 2),SID160750471,1.18,11.3,inactive
TMEM236 (transmembrane protein 236),SID160764493,0.203,4.39,inactive
TMEM236 (transmembrane protein 236),SID160764494,0.0264,3.15,inactive
TMEM236 (transmembrane protein 236),SID160764495,-0.494,-0.509,inactive
NEU1 (neuraminidase 1),SID160731284,3.12,24.9,inactive
NEU1 (neuraminidase 1),SID160777969,-0.843,-2.97,inactive
NEU1 (neuraminidase 1),SID160777970,5.11,38.9,active
PROX1 (prospero homeobox 1),SID160715072,1.89,16.3,inactive
PROX1 (prospero homeobox 1),SID160715073,-0.558,-0.956,inactive
PROX1 (prospero homeobox 1),SID160715074,0.399,5.78,inactive
PLAA (phospholipase A2 activating protein),SID160722065,-0.596,-1.23,inactive
PLAA (phospholipase A2 activating protein),SID160722066,-0.903,-3.39,inactive
PLAA (phospholipase A2 activating protein),SID160722067,-0.918,-3.49,inactive
LINC01120 (long independently transcribed non-coding RNA 1120),SID160766071,1.02,10.1,inactive
LINC01120 (long independently transcribed non-coding RNA 1120),SID160766072,0.279,4.93,inactive
LINC01120 (long independently transcribed non-coding RNA 1120),SID160766073,3.76,29.4,inactive

11 neighbouring entries already listed, quoted:
gene symbol,PubChem SID,G2 robust z-score,"G2 cells, % of GMNN control",outcome
TMEM234 (transmembrane protein 234),SID160733637,-1.13,-5.01,inactive
TMEM234 (transmembrane protein 234),SID160744746,0.303,5.1,inactive
TMEM234 (transmembrane protein 234),SID160744747,1.64,14.5,inactive
AQR (aquarius intron-binding spliceosomal factor),SID160722888,0.499,6.48,inactive
AQR (aquarius intron-binding spliceosomal factor),SID160722889,0.898,9.28,inactive
AQR (aquarius intron-binding spliceosomal factor),SID160722890,-0.784,-2.55,inactive
UBE2HP1 (ubiquitin conjugating enzyme E2 H pseudogene 1),SID160733986,-0.228,1.37,inactive
UBE2HP1 (ubiquitin conjugating enzyme E2 H pseudogene 1),SID160769891,0.901,9.31,inactive
UBE2HP1 (ubiquitin conjugating enzyme E2 H pseudogene 1),SID160769892,1.02,10.2,inactive
EMB (embigin),SID160757244,-0.852,-3.03,inactive
EMB (embigin),SID160757245,-0.745,-2.27,inactive
